{
  "source": "patent US20240351999A1",
  "about": "“PYRROLYLACYLPIPERIDYLAMINE COMPOUND AND USE THEREOF” (INSTITUTE OF MATERIA MEDICA ,CHINESE ACADEMY OF MEDICAL …, priority 2021, published 2024)",
  "tested_on": "Gram-negative bacteria",
  "experiment": "In vitro antibacterial activity, comparison with controls",
  "type": "cell-based",
  "conditions": "vs DS2969 and AZD5099; maximum of 32 times",
  "note": "Some of these results come from one statement about several compounds together.",
  "data": [
    {"smiles": "CO[C@H]1CN(c2ccc(C(C)(C)O)nn2)CC[C@H]1NC(=O)c1[nH]c(C)c(Cl)c1Cl", "note": "[Compound 1, 3,4-dichloro-N-{(3S,4R)-1-[6-(2-hydroxypropan-2-yl)pyridazin-3-yl]-3-methoxypiperidin-4-yl}-5-methyl-IH-pyrrole-2-carboxamide]", "values": [
      {"measurement": "Improvement of activity against Gram-negative bacteria compared with DS2969 and AZD5099", "result": "at least 4 times"}
    ]},
    {"smiles": "CO[C@H]1CN(c2nnc(C(C)(C)O)s2)CC[C@H]1NC(=O)c1[nH]c(C)c(Cl)c1Cl", "note": "[Compound 2, 3,4-Dichloro-N-((3S,4R)-1-(5-(2-hydroxypropan-2-yl)-1,3,4-thiadiazol-2-yl)-3-methoxypiperidin-4-yl)-5-methyl-1H-pyrrole-2-carboxamide]", "values": [
      {"measurement": "Improvement of activity against Gram-negative bacteria compared with DS2969 and AZD5099", "result": "at least 4 times"}
    ]}
  ]
}
